From paper doi:10.1101/2021.07.27.454094
Results are given in words; binding and its absence hold for the method and conditions named. In cells and extracts the contact can be indirect. Some entries that bind do so weakly or less than the wild type. Tags and fused reporters may be left off the sequences shown.

Molecular target: T1, Gds1-TAP (S. cerevisiae) (UniProt P41913)
T1 sequence: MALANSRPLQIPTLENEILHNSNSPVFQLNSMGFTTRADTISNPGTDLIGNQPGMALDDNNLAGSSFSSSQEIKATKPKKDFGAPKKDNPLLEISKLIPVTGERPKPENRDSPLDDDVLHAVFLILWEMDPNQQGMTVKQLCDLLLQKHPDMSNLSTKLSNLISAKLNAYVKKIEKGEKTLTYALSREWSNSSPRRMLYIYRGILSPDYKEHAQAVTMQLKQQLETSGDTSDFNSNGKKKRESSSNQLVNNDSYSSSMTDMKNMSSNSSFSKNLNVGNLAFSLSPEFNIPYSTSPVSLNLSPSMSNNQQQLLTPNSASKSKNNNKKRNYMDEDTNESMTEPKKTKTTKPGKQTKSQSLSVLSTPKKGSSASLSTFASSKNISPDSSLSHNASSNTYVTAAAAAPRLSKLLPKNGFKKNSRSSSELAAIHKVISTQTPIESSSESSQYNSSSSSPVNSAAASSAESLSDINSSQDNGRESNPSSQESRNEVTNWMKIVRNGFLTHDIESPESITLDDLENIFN
Test: co-IP

B1: Esa1, catalytic subunit of the NuA4 histone H4 acetyltransferase complex (protein, UniProt Q08649 1-445)
chain: MSHDGKEEPGIAKKINSVDDIIIKCQCWVQKNDEERLAEILSINTRKAPPKFYVHYVNYNKRLDEWITTDRINLDKEVLYPKLKATDEDNKKQKKKKATNTSETPQDSLQDGVDGFSRENTDVMDLDNLNVQGIKDENISHEDEIKKLRTSGSMTQNPHEVARVRNLNRIIMGKYEIEPWYFSPYPIELTDEDFIYIDDFTLQYFGSKKQYERYRKKCTLRHPPGNEIYRDDYVSFFEIDGRKQRTWCRNLCLLSKLFLDHKTLYYDVDPFLFYCMTRRDELGHHLVGYFSKEKESADGYNVACILTLPQYQRMGYGKLLIEFSYELSKKENKVGSPEKPLSDLGLLSYRAYWSDTLITLLVEHQKEITIDEISSMTSMTTTDILHTAKTLNILRYYKGQHIIFLNEDILDRYNRLKAKKRRTIDPNRLIWKPPVFTASQLRFAW
binding: binds
